This is one part of the list.
compound: Cc1cn(-c2cc(NC(=O)c3ccc(C)c(Nc4nccc(-c5cccnc5)n4)c3)cc(C(F)(F)F)c2)cn1 [nilotinib]; test: log2 fold change, soluble protein after heating vs DMSO (PISA); higher = thermal stabilisation; K562 lysate, 10 uM; active = over 0.2 and 3.5 SD of the protein, either way, in both replicates (recomputed)
How it was run: (§1)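 To prepare the extract, K562 pellets were dounce-homogenised in PBS pH 7.4 with 1 mM MgCl2, giving crude material at 1 mg/mL protein. This was treated with 10 μM compound for 30 min, then heated in aliquots for 3 min over 48°C-58°C before pooling and addition of NP-40 to 0.5% at 4°C. Centrifugation at 21,000xg for 90 min left soluble protein in the supernatant, which TMTpro 16plex LC-MS/MS quantified with equalised channel sums. Results are log-two fold changes in thermal stability compared with solvent controls, from duplicates.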

Sequences of proteins named here, by UniProt entry; tags and fusion partners are left off. A change or cut given only in a name is not applied to a line headed by its entry.
UniProt P23677, whole entry, looked up: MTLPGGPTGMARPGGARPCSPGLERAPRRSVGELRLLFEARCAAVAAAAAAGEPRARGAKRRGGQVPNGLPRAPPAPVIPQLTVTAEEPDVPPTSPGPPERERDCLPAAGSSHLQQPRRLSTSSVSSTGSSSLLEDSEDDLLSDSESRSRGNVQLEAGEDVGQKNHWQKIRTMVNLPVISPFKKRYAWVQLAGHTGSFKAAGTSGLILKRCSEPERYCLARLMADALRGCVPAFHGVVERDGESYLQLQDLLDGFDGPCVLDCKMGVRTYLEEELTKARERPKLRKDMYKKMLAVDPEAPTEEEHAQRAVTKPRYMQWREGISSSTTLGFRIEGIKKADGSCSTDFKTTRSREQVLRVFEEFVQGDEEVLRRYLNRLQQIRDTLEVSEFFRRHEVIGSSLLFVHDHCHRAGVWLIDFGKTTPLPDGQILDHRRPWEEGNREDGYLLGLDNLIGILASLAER
UniProt Q9BW62: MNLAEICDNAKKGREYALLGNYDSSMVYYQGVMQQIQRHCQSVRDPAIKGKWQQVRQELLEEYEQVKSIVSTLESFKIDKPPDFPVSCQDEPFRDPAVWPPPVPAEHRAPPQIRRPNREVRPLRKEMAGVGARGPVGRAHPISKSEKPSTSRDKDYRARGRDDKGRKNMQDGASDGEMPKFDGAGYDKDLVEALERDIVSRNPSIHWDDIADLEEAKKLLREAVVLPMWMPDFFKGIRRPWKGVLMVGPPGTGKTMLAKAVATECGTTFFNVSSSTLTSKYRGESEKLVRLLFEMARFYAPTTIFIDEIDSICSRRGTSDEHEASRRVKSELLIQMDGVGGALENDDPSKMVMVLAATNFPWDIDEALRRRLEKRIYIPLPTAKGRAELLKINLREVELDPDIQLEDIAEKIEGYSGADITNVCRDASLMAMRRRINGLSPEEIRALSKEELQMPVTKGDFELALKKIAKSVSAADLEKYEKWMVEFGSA
UniProt Q9NV88, whole entry, looked up: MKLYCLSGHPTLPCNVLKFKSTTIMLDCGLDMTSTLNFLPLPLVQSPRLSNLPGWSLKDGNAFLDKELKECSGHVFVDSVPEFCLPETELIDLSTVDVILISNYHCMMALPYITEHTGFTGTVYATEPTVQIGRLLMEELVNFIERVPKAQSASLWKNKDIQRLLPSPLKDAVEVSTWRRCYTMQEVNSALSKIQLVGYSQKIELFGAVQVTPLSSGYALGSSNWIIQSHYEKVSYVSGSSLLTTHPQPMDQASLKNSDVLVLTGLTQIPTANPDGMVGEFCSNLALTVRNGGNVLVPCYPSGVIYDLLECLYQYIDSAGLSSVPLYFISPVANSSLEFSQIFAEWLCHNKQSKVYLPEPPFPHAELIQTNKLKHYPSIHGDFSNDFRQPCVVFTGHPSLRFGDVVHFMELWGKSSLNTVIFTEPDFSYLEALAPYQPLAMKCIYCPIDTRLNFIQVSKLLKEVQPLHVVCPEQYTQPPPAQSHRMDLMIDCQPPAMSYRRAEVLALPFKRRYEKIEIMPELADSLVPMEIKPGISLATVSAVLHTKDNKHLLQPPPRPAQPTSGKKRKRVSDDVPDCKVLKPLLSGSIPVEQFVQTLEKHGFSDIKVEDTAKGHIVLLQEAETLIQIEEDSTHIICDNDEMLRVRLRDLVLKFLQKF
UniProt P05161, whole entry, looked up: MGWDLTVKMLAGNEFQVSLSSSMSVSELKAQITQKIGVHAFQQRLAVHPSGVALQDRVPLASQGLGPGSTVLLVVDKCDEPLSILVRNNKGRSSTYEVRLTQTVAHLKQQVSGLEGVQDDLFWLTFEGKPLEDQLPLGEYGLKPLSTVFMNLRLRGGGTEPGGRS
UniProt Q9NZM3: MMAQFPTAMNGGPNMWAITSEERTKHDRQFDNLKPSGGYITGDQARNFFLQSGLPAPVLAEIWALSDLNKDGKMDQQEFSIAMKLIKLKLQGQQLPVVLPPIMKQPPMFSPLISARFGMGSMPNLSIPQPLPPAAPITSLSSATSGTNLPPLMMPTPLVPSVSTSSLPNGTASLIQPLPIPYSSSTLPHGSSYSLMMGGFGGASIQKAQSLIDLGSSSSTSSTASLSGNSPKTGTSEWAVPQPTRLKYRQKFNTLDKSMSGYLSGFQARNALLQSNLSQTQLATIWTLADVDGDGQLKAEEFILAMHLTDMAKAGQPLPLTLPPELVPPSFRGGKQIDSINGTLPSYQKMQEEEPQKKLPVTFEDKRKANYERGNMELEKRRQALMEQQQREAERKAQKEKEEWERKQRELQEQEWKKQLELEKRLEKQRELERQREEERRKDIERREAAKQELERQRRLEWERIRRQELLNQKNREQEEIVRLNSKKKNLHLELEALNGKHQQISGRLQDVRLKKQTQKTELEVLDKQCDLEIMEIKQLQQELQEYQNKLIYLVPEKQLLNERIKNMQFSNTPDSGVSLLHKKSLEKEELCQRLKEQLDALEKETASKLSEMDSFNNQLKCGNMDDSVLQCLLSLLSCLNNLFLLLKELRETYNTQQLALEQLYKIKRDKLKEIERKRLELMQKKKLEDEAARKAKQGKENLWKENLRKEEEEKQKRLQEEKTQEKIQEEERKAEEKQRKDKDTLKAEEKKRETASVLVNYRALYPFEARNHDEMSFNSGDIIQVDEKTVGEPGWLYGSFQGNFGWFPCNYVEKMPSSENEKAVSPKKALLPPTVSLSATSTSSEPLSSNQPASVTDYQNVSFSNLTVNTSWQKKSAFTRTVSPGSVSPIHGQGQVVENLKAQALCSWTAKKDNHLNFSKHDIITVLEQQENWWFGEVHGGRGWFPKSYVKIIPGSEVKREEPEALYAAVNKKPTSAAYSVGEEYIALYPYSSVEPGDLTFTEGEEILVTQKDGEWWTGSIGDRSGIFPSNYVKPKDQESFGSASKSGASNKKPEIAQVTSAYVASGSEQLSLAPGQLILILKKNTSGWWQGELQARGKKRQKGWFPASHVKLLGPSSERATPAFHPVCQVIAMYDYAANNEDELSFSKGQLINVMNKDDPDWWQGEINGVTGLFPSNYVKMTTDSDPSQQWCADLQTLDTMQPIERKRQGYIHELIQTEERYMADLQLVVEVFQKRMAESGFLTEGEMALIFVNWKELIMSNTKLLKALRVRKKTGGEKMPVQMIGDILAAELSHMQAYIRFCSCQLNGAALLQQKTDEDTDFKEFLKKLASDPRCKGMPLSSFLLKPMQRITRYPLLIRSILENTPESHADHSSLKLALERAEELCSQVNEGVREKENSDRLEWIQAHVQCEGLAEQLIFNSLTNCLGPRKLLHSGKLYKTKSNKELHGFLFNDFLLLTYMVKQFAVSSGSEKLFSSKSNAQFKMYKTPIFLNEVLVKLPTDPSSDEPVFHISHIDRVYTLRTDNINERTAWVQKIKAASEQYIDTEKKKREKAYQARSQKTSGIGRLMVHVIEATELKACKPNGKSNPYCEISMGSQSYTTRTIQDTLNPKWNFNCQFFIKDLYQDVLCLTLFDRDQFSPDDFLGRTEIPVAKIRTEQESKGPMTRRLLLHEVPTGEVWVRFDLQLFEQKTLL
UniProt P08648, whole entry, looked up: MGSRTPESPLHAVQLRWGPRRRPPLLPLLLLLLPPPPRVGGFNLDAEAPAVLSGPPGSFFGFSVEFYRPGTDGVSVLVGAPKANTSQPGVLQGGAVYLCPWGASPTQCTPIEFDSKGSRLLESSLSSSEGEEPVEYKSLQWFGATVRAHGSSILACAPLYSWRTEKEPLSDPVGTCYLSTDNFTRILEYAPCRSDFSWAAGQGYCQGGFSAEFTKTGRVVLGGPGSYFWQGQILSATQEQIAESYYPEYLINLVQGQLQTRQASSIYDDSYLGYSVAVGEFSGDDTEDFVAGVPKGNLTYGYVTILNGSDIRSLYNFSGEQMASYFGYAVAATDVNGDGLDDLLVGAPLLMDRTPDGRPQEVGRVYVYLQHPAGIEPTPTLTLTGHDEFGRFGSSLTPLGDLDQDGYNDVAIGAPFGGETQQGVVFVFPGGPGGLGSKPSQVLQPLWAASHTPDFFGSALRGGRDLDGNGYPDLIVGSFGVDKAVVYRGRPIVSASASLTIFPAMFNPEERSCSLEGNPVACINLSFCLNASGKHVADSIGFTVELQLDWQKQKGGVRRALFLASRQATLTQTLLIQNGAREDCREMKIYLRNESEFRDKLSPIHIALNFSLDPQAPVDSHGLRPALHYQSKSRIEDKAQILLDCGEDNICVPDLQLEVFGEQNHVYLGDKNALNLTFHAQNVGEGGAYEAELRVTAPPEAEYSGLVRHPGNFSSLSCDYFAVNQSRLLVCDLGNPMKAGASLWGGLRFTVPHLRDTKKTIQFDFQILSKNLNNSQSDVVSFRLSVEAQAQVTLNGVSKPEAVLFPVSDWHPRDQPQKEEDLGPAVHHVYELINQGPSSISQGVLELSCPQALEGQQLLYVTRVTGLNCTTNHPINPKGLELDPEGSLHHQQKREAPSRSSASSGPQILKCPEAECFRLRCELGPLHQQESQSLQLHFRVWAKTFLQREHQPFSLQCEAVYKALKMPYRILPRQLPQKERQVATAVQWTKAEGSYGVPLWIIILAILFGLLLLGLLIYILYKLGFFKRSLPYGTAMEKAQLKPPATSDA
UniProt Q9H1K1: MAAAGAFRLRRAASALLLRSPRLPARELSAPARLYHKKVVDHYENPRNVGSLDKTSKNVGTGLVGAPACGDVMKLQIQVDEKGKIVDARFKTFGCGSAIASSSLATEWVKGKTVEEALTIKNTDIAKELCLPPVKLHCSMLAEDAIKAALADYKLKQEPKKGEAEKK
UniProt Q9P2N6: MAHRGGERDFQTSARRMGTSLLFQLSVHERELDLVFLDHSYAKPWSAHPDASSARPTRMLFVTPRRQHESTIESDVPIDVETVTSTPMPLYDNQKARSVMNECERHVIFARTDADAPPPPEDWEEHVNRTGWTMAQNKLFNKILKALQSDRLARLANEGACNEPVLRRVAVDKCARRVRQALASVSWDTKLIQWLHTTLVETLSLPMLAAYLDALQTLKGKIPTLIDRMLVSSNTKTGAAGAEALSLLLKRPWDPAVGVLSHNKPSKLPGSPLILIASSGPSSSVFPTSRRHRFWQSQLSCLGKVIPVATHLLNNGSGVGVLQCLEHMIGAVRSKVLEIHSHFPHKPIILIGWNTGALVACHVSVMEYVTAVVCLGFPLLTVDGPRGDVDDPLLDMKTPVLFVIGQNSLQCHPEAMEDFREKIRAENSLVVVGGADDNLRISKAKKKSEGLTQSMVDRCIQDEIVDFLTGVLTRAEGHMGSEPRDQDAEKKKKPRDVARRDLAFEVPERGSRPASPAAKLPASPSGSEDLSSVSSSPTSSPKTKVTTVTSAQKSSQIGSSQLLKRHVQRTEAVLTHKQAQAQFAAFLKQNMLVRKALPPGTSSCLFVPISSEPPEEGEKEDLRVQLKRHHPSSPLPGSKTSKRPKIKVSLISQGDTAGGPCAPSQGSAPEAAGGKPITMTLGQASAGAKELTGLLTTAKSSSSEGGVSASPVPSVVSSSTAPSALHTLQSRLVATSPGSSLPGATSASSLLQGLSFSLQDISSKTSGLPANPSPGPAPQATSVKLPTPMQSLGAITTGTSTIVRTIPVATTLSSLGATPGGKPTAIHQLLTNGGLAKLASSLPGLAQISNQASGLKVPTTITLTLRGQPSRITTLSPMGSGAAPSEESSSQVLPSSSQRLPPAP
UniProt Q92551: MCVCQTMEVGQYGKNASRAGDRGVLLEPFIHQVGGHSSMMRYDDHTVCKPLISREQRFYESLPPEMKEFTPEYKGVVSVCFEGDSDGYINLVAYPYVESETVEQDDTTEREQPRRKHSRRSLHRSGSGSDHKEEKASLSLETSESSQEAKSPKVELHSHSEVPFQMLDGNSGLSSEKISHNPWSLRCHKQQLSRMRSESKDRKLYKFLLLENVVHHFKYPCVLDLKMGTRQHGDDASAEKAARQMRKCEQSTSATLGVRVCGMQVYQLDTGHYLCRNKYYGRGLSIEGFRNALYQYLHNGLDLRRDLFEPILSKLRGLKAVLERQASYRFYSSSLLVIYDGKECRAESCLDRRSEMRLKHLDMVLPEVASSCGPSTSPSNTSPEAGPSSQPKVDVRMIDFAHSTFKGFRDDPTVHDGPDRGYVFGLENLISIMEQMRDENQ
UniProt O95279: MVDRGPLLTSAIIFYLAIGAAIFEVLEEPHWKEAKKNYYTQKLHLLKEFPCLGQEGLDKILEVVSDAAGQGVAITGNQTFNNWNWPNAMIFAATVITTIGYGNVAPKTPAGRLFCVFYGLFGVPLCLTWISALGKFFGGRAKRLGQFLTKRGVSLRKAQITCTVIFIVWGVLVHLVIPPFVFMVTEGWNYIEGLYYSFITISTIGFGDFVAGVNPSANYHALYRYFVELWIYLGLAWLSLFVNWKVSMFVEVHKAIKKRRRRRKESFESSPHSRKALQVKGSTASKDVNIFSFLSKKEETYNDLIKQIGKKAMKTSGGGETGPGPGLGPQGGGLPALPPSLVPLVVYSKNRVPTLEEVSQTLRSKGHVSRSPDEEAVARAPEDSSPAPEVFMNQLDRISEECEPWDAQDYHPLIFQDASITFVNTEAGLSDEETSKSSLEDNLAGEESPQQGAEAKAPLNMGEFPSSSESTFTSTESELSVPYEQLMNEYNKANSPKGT

log2 fold change, inactive:
ITPKA (UniProt P23677) -0.005, KCTD15 (UniProt Q96SI1) 0.047, IPO4 isoform 2 (UniProt Q8TEX9) 0.048, IVNS1ABP (UniProt Q9Y6Y0) 0.041, KAT8 (UniProt Q9H7Z6) -0.034, KCMF1 (UniProt Q9P0J7) 0.039, ITGAV (UniProt P06756) 0.048, INTS14 (UniProt Q96SY0) 0.024, ISOC2 (UniProt Q96AB3) 0.012, KCTD5 (UniProt Q9NXV2) -0.009, ITPK1 (UniProt Q13572) -0.015, KATNAL1 (UniProt Q9BW62) -0.101, INTS9 (UniProt Q9NV88) 0.052, IQGAP1 (UniProt P46940) -0.001, IRGQ (UniProt Q8WZA9) 0.019, ISG15 (UniProt P05161) -0.015, IST1 (UniProt P53990) -0.004, INTS4 (UniProt Q96HW7) 0.021, KBTBD2 (UniProt Q8IY47) 0.014, KBTBD4 isoform 2 (UniProt Q9NVX7) 0.063, KARS1 (UniProt Q15046) -0.017, ITSN2 (UniProt Q9NZM3) 0.016, KATNA1 (UniProt O75449) 0, ITGA5 (UniProt P08648) -0.012, KCTD2 (UniProt Q14681) 0.001, ISCU (UniProt Q9H1K1) -0.047, KAT2A (UniProt Q92830) -0.02, JUND (UniProt P17535) -0.025, ITSN1 isoform 8 (UniProt Q15811) -0.029, INTS5 (UniProt Q6P9B9) 0.11, KANSL3 (UniProt Q9P2N6) 0.177, IQSEC1 (UniProt Q6DN90) 0.146, ITPA (UniProt Q9BY32) 0.034, INTS8 (UniProt Q75QN2) 0.035, KDELR2 (UniProt P33947) 0.014, IP6K1 (UniProt Q92551) -0.049, IRF3 (UniProt Q14653) -0.008, IWS1 (UniProt Q96ST2) 0.029, KCNK5 (UniProt O95279) 0.113

compound: Cc1nc(Nc2n[nH]c3c2CN(C(=O)N[C@H](CN(C)C)c2ccccc2)C3(C)C)c2sccc2n1; test: as above
How it was run: as §1

log2 fold change, inactive:
ITPKA (UniProt P23677) 0.045, KCTD15 (UniProt Q96SI1) 0.005, IPO4 isoform 2 (UniProt Q8TEX9) -0.011, IVNS1ABP (UniProt Q9Y6Y0) -0.024, KAT8 (UniProt Q9H7Z6) 0.028, KCMF1 (UniProt Q9P0J7) 0.018, ITGAV (UniProt P06756) 0, INTS14 (UniProt Q96SY0) 0.023, ISOC2 (UniProt Q96AB3) 0.022, KCTD5 (UniProt Q9NXV2) 0.071, ITPK1 (UniProt Q13572) 0.067, KATNAL1 (UniProt Q9BW62) 0.065, INTS9 (UniProt Q9NV88) -0.043, IQGAP1 (UniProt P46940) -0.004, IRGQ (UniProt Q8WZA9) 0.05, ISG15 (UniProt P05161) -0.073, IST1 (UniProt P53990) -0.037, INTS4 (UniProt Q96HW7) -0.028, KBTBD2 (UniProt Q8IY47) -0.005, KBTBD4 isoform 2 (UniProt Q9NVX7) -0.019, KARS1 (UniProt Q15046) -0.01, ITSN2 (UniProt Q9NZM3) -0.026, KATNA1 (UniProt O75449) 0.015, ITGA5 (UniProt P08648) -0.023, KCTD2 (UniProt Q14681) 0.061, ISCU (UniProt Q9H1K1) 0.092, KAT2A (UniProt Q92830) 0.062, JUND (UniProt P17535) 0.06, ITSN1 isoform 8 (UniProt Q15811) 0.002, INTS5 (UniProt Q6P9B9) -0.093, KANSL3 (UniProt Q9P2N6) 0.068, IQSEC1 (UniProt Q6DN90) -0.115, ITPA (UniProt Q9BY32) -0.033, INTS8 (UniProt Q75QN2) 0.044, KDELR2 (UniProt P33947) 0.023, IP6K1 (UniProt Q92551) -0.028, IRF3 (UniProt Q14653) -0.034, IWS1 (UniProt Q96ST2) -0.009, KCNK5 (UniProt O95279) -0.858

— the supplement of paper PMC10849652
